Here are results for one molecule from publication PMC8837605, “In vitro reconstitution of an efficient nucleotide excision repair system using mesophilic enzymes from Deinococcus radiodurans”.

Amino acid sequences for entries named in this document (tags omitted).
UniProt Q46577: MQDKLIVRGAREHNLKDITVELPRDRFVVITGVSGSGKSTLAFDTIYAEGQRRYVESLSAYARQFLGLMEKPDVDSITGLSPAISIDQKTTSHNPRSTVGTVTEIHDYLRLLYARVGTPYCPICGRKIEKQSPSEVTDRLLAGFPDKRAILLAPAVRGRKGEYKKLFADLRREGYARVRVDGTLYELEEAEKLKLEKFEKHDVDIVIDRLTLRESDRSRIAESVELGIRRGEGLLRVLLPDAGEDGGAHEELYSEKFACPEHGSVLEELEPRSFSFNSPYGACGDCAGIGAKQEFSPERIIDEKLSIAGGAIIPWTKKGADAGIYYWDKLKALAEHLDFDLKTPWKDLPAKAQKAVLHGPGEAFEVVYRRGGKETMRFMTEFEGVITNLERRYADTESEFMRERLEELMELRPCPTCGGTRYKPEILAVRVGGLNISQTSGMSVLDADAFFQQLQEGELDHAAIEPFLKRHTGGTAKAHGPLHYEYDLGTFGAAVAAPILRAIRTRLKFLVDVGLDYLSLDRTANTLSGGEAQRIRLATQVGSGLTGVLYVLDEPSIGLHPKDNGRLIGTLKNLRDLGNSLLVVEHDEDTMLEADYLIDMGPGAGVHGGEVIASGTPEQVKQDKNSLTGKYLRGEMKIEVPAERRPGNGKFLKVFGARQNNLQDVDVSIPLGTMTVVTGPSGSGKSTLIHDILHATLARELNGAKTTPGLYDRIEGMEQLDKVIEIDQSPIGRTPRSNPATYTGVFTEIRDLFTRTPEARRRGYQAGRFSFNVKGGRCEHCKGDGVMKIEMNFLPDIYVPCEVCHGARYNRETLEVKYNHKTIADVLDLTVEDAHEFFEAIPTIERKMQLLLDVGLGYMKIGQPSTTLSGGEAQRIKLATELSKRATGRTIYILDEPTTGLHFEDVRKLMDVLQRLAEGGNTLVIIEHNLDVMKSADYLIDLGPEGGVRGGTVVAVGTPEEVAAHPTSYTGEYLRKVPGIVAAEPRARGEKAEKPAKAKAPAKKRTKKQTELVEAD

These are yes or no findings as the source states them, for the method shown.

This assay deals with Deinococcus radiodurans UvrA1 (Deinococcus radiodurans) (UniProt Q46577). Put plainly: SEC; size-exclusion chromatography of drUvrA1 with drUvrB; told only in the discussion, no conditions or figure given; both purified. (In gel filtration, larger molecules generally elute earlier.)

B1: Deinococcus radiodurans UvrB (protein, UniProt Q9RS52 60-730)
chain: MLKVRSEFKPSGDQPTAIASLVDGLESGLRYQTLLGATGTGKTYSMAKVIEEVQRPALIMAPNKILTAQLASEFREFFPDAAVEFFISYYDYYQPEAYVPGKDLFIEKDASVNQEIERLRHSTTRSLLTRRDTIVVASVSCIYGLGDPKEYTALNAIVKKGGVMPRDELLGRLVNMQYERNDIELMPGRFSVKGETVTVWPAYDEQPLRIELWGDDVERISVVHPLTGERLGDLDATVVYPAKHYVSSAGNIERAIGSIQQELDERLEYFHSVGKLLEAQRLKERTLYDLEMLKVLGYCSGIENYSRHIDGRAPGATPYTMLDYFPDDFITFIDESHVTVPQIGGMANGDRARKQTLVDYGFRLPSAMDNRPLNFEEFLSKTGQTVFVSATPGPFENQVSDSVADQIIRPTGLVDPEVTIRPIQGQIEDLLGRVRERTAAGERTLVTTLTKRMSEDLTEYLLEKGVKARYLHSDIDSVERQVIIRDLRLGHYDVLVGINLLREGLDLPEVSLVAILDADKPGFLRSDRALIQTIGRAARNVNGEVILYADVVTPAMRFAMDETARRREKQLAYNEEHGITPRTVIKGVRDVIRGEELEGEISSENVSGDRDSLTAQLTDLELDMWQASEAMDFEKAASLRDQIRAIEAKLQGKEFKQATVPGQKARRKGRR
As to B1, the binding result is “no binding”.
